The text below walks through data of publication PMC10163288.

First the molecules themselves.
B1: il2ra_site2_2erj_normal_mot_HHH_b2_01031_af2_000000243_0001_19_35_H_._HHH_b2_02620_af2_0001_0000600009_0000001_1 (protein)
chain: SSSSDLEEEVRELLEEIRELIKRGDEEEAEKLLHEAAELAFENNNFELFALISELFELLVRSSSS
B2: il2ra_site1_1z92_sap_17_mot_HHH_b1_07828_af2_000000107_0001_18_34_H_._HHH_b1_02318_0001_0000100003_0000001_0_0001_af2pred_0001_af2pred_swapped (protein)
chain: HDAEAVARQLEHFARRAGVKEVSVEVRNGTFHITVKGDDTHSESVRKLAEKLVKRSGHELEVETK
B3: il2ra_site2_3nfp_sap_17_mot_HHH_b2_07560_000000133_0001_43_56_H_._HHH_b2_05526_af2_0001_0000400015_0000001_0_0001 (protein)
chain: SSSSSSKAEEYVRAALALLKRIKDEELFERHREVIRLAIEDQGNEELRELLEEIEKQYRSSSSSS
B4: il2ra_site1_1z92_sap_14_mot_35b94aac26684153dbcc4bf06a514b74_0001_1_000000068_0001_35_49_H_._HHH_b2_01455_af2_0001_0000100011_0000001_0_0001 (protein)
chain: SSSSSDEKVAKAIVRVLVQVARLSEEQEEILERLAEELVREGYSALEIMRILDKRAAELQSSSSS
B5: il2ra_site1_1z92_sap_14_mot_HHH_b2_04375_000000267_0001_42_56_H_._HHH_b1_00305_0001_0000100012_0000001_0_0001_af2pred_0001_af2pred_1 (protein)
chain: SSSSSDKEELLERVTELWRRLAKVSREEAEKLLEEAEELAEEAGDELIEEELRHFLERLSSSSSS
B6: il2ra_site1_3nfp_sap_10_mot_86920ccf215a9397388743310839e631_0001_1_000000296_0001_18_34_H_._HHH_b1_06234_0001_0000700033_0000001_1_0001_af2pred_0001_af2pred_sw … (protein)
chain: TILERLIALAVEEGNERQIKRVVEQMEKRLGDPEEARRLVVRALERALNIPPEEAEELVEELLER
B7: il2ra_site2_3nfp_sap_23_mot_HHH_b2_04927_af2_000000190_0001_39_52_H_._HHH_b1_06590_af2_0001_0000200026_0000001_0_0001 (protein)
chain: SSSSDIKEEYLEALKLLIERAIEEGDREAAEKLLRRAKLIAESRHDEEIREELEELEEKINSSSS
B8: il2ra_site2_3nfp_normal_mot_HHH_b1_05627_af2_000000038_0001_43_56_H_._HHH_b1_07199_af2_0001_0000600017_0000001_0 (protein)
chain: SSSSDKAEEYLRIALELLEEAIKAGDEESAKSILEVARLAAELHNDEEVEERLEELEELLSSSSS
B9: il2ra_site2_2erj_sap_20_mot_HHH_b1_01129_af2_000000281_0001_18_33_H_._5bdd4610f343b6a2bc5b56655e81a1bb_0001_1_0001_0000100005_0000001_0_0001 (protein)
chain: SSSSDEERIEELIERAEQLLEEGNPEEARELLREAAEIAFELGNFELFSRLAELALEAFELSSSS
B10: il2ra_site2_2erj_normal_mot_af86707857d369f3e1d85dcabc5f9321_0001_000000201_0001_14_29_H_._HHH_b2_01431_af2_0001_0000200019_0000001_0 (protein)
chain: SSSSEEAEELLEQAKELLEKGNPEEALKLLSRAFEIAYRLGDHELAAELQTLAHEAVKLEASSSS
B11: il2ra_site1_2b5i_normal_mot_ems_3hM_3687_af2_000000248_0001_45_64_H_._HHH_b1_00339_0001_0001500122_0000001_0_af2pred_dldesign_0_af2pred (protein)
chain: SSSSSAALAFAERAAREARRLAAAGRRREALELLEAAAKALDEEGLDEKADELYELARELSSSSS
B12: il2ra_site2_2erj_sap_22_mot_46479c6699afdbd8d5d5faf00326b0b9_0001_1_af2_000000112_0001_34_47_H_._HHH_b2_06957_af2_0001_0000500027_0000001_0_0001_af2pred_0001_af … (protein)
chain: SSSSDEYEEILKEYEKAAEELGDKKAEILLRLATEAAKKLGLSEEELRELLKHILEAIEEGSSSS
B13: il2ra_site1_2b5i_sap_9_mot_0921d739bb7547bb6fa23329820ad62a_0001_000000012_0001_54_65_H_._HHH_b2_02673_0001_0000100006_0000001_0_0001_af2pred_dldesign_0_af2pred (protein)
chain: SSSSSSDLAALEAEARRLADAGKRREALELLDAAYKAAAAAGDEEAEERLYELAKTLKSSSSSSS
B14: il2ra_site1_2b5i_normal_mot_HHH_b2_04910_000000118_0001_1_19_H_._HHH_b1_03439_af2_0001_0000300011_0000001_0 (protein)
chain: SSSSNEAERARELFREADELDKNGNPEEAEEVLEEAEEFAERGGSRSLLRMIRYALEELRGSSSS
B15: il2ra_site2_3nfp_normal_mot_HHH_b1_00660_af2_000000090_0001_40_57_H_._HHH_b1_08415_0001_0000600024_0000001_0_af2pred_0001_1_af2pred_swapped (protein)
chain: SSSSSSDVEELIEEAERLLEEGDPEEAREILRRAASLAYELGDVELFARILELLLEIHSSSSSSS
B16: il2ra_site1_3nfp_sap_25_mot_HHH_b1_02174_af2_000000144_0001_1_18_H_._HHH_b1_08546_0001_0000100002_0000001_1_0001_af2pred_0001_af2pred_swapped (protein)
chain: SSSSDVEERLKQLLEELEELARKLDLRRFLEVAKEISRLVQEHDDEEAYRLLRRILREAAGSSSS
B17: il2ra_site2_3nfp_normal_mot_HHH_b2_07498_000000057_0001_1_14_H_._HHH_b2_05183_0001_0000200013_0000001_0 (protein)
chain: SSSSDREEVEELLEEAEELLKEGNPEEAFQVVLRASKLAAKLDDPELARAVLELYELLKRSSSSS
B18: il2ra_site2_2erj_normal_mot_3b06bd03f1c6bceadc68eab912867b79_0001_000000296_0001_36_50_H_._c839b00de2d74b58ead539899b931618_0001_0001_0000400015_0000001_0_af2pr … (protein)
chain: SEVEEFLRELLEQDPRDRLVFTILSIFKWALKSGLPPEEVTKKVIEAAEAAGNPELAEELKKILK

Some of the results follow.

The experiment deals with il2ra, P01589. As to the kind of experiment: yeast display titration.
For B1, the “apparent Kd” value was “inactive: no binding seen”.

Regarding B2, the “apparent Kd” value was “inactive: no binding seen”.

B3: the “apparent Kd” value was “inactive: no binding seen”.

Turning to B4, the “apparent Kd” value is “inactive: no binding seen”.

In the case of B5, the “apparent Kd” value was “inactive: no binding seen”.

Take B6: the “apparent Kd” value is “inactive: no binding seen”.

Regarding B7, the “apparent Kd” value was “inactive: no binding seen”.

In the case of B8, the “apparent Kd” value is “inactive: no binding seen”.

Turning to B9, the “apparent Kd” value is “inactive: no binding seen”.

For B10, the “apparent Kd” value was “inactive: no binding seen”.

In the case of B11, the “apparent Kd” value is “inactive: no binding seen”.

As for B12, the “apparent Kd” value is “inactive: no binding seen”.

With B13, the “apparent Kd” value is “inactive: no binding seen”.

Regarding B14, the “apparent Kd” value was “inactive: no binding seen”.

As to B15, the “apparent Kd” value was “inactive: no binding seen”.

Regarding B16, the “apparent Kd” value was “inactive: no binding seen”.

Regarding B17, the “apparent Kd” value was “inactive: no binding seen”.

Consider B18, for which the “apparent Kd” value was “inactive: no binding seen”.
